Our source for the binding values is US7199218B1, “ICBP90 polypeptide and its fragments and polynucleotides coding for said polypeptides and applications for diagnosing and treating cancer” (Institut National de la Sante et de la Recherche Medicale …, priority 1999, dated 2007).

Chains of the proteins cited; added tags and fusions are not shown.
UniProt Q92993: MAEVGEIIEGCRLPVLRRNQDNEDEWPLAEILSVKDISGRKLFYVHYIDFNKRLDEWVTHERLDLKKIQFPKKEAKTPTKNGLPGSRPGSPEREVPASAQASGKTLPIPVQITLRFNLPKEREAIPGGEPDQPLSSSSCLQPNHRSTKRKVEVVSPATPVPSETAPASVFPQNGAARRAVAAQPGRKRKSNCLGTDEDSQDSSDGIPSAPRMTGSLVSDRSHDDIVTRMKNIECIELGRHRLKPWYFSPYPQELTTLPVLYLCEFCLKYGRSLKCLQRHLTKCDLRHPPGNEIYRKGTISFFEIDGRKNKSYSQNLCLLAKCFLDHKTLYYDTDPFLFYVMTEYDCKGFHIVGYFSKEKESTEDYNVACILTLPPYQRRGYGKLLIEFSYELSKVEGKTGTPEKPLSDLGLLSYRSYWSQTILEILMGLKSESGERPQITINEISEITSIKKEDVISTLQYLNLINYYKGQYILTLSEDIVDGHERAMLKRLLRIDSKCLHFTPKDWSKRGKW

The target in the assay is TIP60 (Tat Interactive Protein, 60 kDa) (Homo sapiens, UniProt Q92993). Nature of the assay: double-hybrid (two-hybrid) technique.

Results are given in words; binding and its absence hold for the method and conditions named. Some results given as binding are weak or reduced against the parent protein; the word gives no strength.

B1: ICBP90 (Inverted CCAAT Box Binding Protein of 90 kDa) (protein)
chain: MWIQVRTMDGRQTHTVDSLSRLTKVEELRRKIQELFHVEPGLQRLFYRGKQMEDGHTLFDYEVRLNDTIQLLVRQSLVLPHSTKERDSELSDTDSGCCLGQSESDKSSTHGEAAAETDSRPADEDMWDETELGLYKVNEYVDARDTNMGAWFEAQVVRVTRKAPSRDEPCSSTSRPALEEDVIYHVKYDDYPENGVVQMNSRDVRARARTIIKWQDLEVGQVVMLNYNPDNPKERGFWYDAEISRKRETRTARELYANVVLGDDSLNDCRIIFVDEVFKIERPGEGSPMVDNPMRRKSGPSCKHCKDDVNRLCRVCACHLCGGRQDPDKQLMCDECDMAFHIYCLDPPLSSVPSEDEWYCPECRNDASEVVLAGERLRESKKNAKMASATSSSQRDWGKGMACVGRTKECTIVPSNHYGPIPGIPVGTMWRFRVQVSESGVHRPHVAGIHGRSNDGSYSLVLAGGYEDDVDHGNFFTYTGSGGRDLSGNKRTAEQSCDQKLTNTNRALALNCFAPINDQEGAEAKDWRSGKPVRVVRNVKGGKNSKYAPAEGNRYDGIYKVVKYWPEKGKSGFLVWRYLLRRDDDEPGPWTKEGKDRIKKLGLTMQYPEGYLEALANREREKENSKREEEEQQEGGFASPRTGKGKWKRKSAGGGPSRAGSPRRTSKKTKVEPYSLTAQQSSLIREDKSNAKLWNEVLASLKDRPASGSPFQLFLSKVEETFQCICCQELVFRPITTVCQHNVCKDCLDRSFRAQVFSCPACRYDLGRSYAMQVNQPLQTVLNQLFPGYGNGR
Take B1: the binding entry is “binds”.
